These results are taken from patent publication US20220185898A1.

Protein sequences, listed by entry. Tags and fused reporters are not part of them. Lines headed by an entry give the natural chain unless they say otherwise; changes in a name come on top. Residues count along the entry.
UniProt Q99523: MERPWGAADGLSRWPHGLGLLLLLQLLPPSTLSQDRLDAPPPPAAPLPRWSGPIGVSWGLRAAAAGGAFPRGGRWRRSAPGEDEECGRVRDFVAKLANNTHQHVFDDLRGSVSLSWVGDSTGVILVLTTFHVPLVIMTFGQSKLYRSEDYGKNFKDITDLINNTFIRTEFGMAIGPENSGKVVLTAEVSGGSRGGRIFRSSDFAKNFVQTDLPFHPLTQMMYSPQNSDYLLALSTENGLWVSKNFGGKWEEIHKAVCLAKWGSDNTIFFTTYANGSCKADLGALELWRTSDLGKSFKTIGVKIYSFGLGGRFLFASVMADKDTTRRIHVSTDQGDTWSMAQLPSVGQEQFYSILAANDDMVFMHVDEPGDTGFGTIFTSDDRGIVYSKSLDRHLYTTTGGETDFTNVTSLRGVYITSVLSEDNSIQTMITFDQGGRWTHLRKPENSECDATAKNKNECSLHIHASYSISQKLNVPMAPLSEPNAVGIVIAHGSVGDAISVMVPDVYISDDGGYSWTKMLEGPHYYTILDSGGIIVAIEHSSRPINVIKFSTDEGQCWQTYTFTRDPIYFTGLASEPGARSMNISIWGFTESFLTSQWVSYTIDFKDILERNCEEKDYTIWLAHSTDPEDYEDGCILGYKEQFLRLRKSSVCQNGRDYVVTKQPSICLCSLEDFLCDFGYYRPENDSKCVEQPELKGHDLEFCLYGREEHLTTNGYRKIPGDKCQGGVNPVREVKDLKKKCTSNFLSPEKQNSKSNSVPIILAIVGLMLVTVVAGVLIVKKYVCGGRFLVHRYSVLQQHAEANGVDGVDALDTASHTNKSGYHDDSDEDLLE
UniProt P01138, residues 19-241: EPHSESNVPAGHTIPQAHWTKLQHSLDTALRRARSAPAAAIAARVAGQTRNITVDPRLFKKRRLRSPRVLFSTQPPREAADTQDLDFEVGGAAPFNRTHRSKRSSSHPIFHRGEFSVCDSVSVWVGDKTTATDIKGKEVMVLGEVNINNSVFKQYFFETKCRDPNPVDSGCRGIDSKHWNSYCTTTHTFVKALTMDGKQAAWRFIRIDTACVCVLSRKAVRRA

Results are given in words; binding and its absence hold for the method and conditions named. Some entries that bind do so weakly or less than the wild type.

The assay deals with recombinant human Sortilin, His-tagged (R&D Systems) (human) (UniProt Q99523). Nature of the assay: Biacore SPR, pro-NGF on His-captured human Sortilin (scheme of the assay). (SPR reads the build-up and loss of mass on a sensor chip optically.)

“human pro-NGF (from UniProt P01138 19-241) (ligand)”: the binding entry is “binds”.
